In paper PMC7819943, “Rice protein-binding microarrays: a tool to detect cis-acting elements near promoter regions in rice”:
The other results are listed elsewhere or left out.

Amino acid sequences for entries named in this document (tags omitted).
UniProt Q0JBA9, entry or part of it: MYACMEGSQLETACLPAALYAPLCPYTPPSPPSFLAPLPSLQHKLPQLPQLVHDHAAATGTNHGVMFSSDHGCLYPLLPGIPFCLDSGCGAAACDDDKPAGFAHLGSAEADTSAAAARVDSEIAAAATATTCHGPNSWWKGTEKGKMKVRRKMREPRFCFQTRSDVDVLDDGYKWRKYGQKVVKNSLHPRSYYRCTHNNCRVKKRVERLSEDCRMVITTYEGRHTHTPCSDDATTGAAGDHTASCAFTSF

Target: OsWRKY34 (Oryza sativa, UniProt Q0JBA9 1-250)
Test: protein-binding microarray (RPBM); PBS, 2% BSA, 51.3 ng/ul salmon testes DNA, 50 uM zinc acetate, 200 nM TF, 25 C, 1 h; high values mean tight binding
Conditions: protein: recombinant; tags: N-terminal polyhistidine and DsRed monomer fusion (pET32a); label: CyDye5-dUTP incorporated in the synthesized complementary strand; 3' TTTTT single-stranded linker to array surface; dsDNA, one strand shown
Summary of the method: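 Binding signal here means per-feature fluorescence intensity in arbitrary units. The values were read on an Axon 4000B scanner after a custom Agilent array, double-stranded by primer extension with Cy5-dUTP, was incubated with 200 nM protein at 25 °C for 1 h in PBS with 2% BSA, salmon testes DNA and 50 µM zinc acetate, then washed. The proteins were transcription factors with an N-terminal polyhistidine tag and DsRed, expressed in E. coli BL21-CodonPlus and purified on Ni–NTA.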

Sequence | binding signal
CTCAACTTCTACTATCTTATTTTCCGCATGTATGTTTCTCCGGAGTCACCTAGTGCAG | 9380 fluorescence intensity (a.u.)
CACGTTAGATTATCCCAACTGAATCCCTGTTCCACCTTATCGGAGTCACCTAGTGCAG | 10500 fluorescence intensity (a.u.)
CGCTTATTAGCTTCTTCTTTTCATTCCGATTTGGTGGGGTCGGAGTCACCTAGTGCAG | 9670 fluorescence intensity (a.u.)
TGGATGGTACTCCCTCCTCTAAATGTTTGACGCCGTTGACCGGAGTCACCTAGTGCAG | 14400 fluorescence intensity (a.u.)
CCATCCTTGATGCGGCGTCGATCTACACGCTTATCGGTAGCGGAGTCACCTAGTGCAG | 8510 fluorescence intensity (a.u.)
TATACAATTGCCTTACCTGTCCCCACCTGTCACATGCCTCCGGAGTCACCTAGTGCAG | 9460 fluorescence intensity (a.u.)
TAAATCCCCAATACTCCGTATCATAGATCTTCACCTCTCACGGAGTCACCTAGTGCAG | 9840 fluorescence intensity (a.u.)
GGTGGGATGGTTTTTGTGTGTTTGCAAACCTGCAAGCACTCGGAGTCACCTAGTGCAG | 12200 fluorescence intensity (a.u.)
AGTTTTACTCATTCATCATTCATCATGTCACACATCCAACCGGAGTCACCTAGTGCAG | 8500 fluorescence intensity (a.u.)
CTGGTTGCAGCTACCACCGTTCAACCATGCAATCACACGTCGGAGTCACCTAGTGCAG | 9160 fluorescence intensity (a.u.)
CGTTTTATCCTCAAAAGCCGAGCTATCCTTATCCCAAAACCGGAGTCACCTAGTGCAG | 8480 fluorescence intensity (a.u.)
TCCTAATTTCACCATTATCTTGAAGCTCCACTTGCTACCACGGAGTCACCTAGTGCAG | 8040 fluorescence intensity (a.u.)
CAGTTTTGTGGATCGGATTGTGTTTGTGATCTTCCACCAACGGAGTCACCTAGTGCAG | 8480 fluorescence intensity (a.u.)
ACACCTCCGCACCGGACGTCCGGACCCCATACACCTCCGCCGGAGTCACCTAGTGCAG | 10500 fluorescence intensity (a.u.)
TTCCTCCTGCGGTCCCGCCCAACCCAAACCTCTCACCATGCGGAGTCACCTAGTGCAG | 8060 fluorescence intensity (a.u.)
GCCGCATCCATCGCGAAGGCTACTCTACCCATCCCATTTTCGGAGTCACCTAGTGCAG | 9260 fluorescence intensity (a.u.)
GGGTGTGTTTTTTTTCCAAAGGAATGGAACCATTCCATTCCGGAGTCACCTAGTGCAG | 9230 fluorescence intensity (a.u.)
ATTCTTCTCCATGCTTTAGCATCCAAGCTCCAGTTTCACCCGGAGTCACCTAGTGCAG | 8530 fluorescence intensity (a.u.)
TCTTCATATCTTCTTTCCAACTACCACACCACACACGAAACGGAGTCACCTAGTGCAG | 8300 fluorescence intensity (a.u.)
CATGTCGACGTTTGGATGGGTTTTAGATTTGTGTCATTTTCGGAGTCACCTAGTGCAG | 10800 fluorescence intensity (a.u.)
TTCGAAATGTTTGACGCCGTTGACTTTTTAGCATATGTTTCGGAGTCACCTAGTGCAG | 13200 fluorescence intensity (a.u.)
CCATTAGCAAACCTCGCCGATTCTCTCTCTCGATCGAACACGGAGTCACCTAGTGCAG | 9130 fluorescence intensity (a.u.)
GTTGTTTGTTTGAGACTCTGTTCCTTTTGGCTTGGTTTTCCGGAGTCACCTAGTGCAG | 12700 fluorescence intensity (a.u.)
TCAATCCACTACCAGTCTCTGACCGACGTGTTTTGTGCATCGGAGTCACCTAGTGCAG | 8730 fluorescence intensity (a.u.)
ATCTTTCTCCGGTCAAGTTCTAGCACAACAAAACACAAGCCGGAGTCACCTAGTGCAG | 8060 fluorescence intensity (a.u.)
CTGCTTGGCTGCCATCCCCTGCTATTCCCCAACCTCCTCCCGGAGTCACCTAGTGCAG | 8340 fluorescence intensity (a.u.)
GGTAGCCGGGAGGGAGGGGAAGCGGCGGCGTTTGTTTCTGCGGAGTCACCTAGTGCAG | 10300 fluorescence intensity (a.u.)

In another format: entries from further up.

| Sequence | binding signal |
| --- | --- |
| ATTCTTCTCCATGCTTTAGCATCCAAGCTCCAGTTTCACCCGGAGTCACCTAGTGCAG | 8530 fluorescence intensity (a.u.) |
| TCTTCATATCTTCTTTCCAACTACCACACCACACACGAAACGGAGTCACCTAGTGCAG | 8300 fluorescence intensity (a.u.) |

The listing continues:

Sequence | binding signal
TAAGTCTATTTTACATCCCTATTCTTTCGACCGTGGCATACGGAGTCACCTAGTGCAG | 8970 fluorescence intensity (a.u.)
CTTTTTTTTCTTTTTTCTTTTTTCTTTTTTTTCTTTTGAGCGGAGTCACCTAGTGCAG | 12300 fluorescence intensity (a.u.)
CTACCGACCACACCCCGTCCAGTCCGGTCTCCATCGCTTTCGGAGTCACCTAGTGCAG | 8530 fluorescence intensity (a.u.)
TTTTGCTATCTTCTCGCTGCGATCGCCACAAATTGACATGCGGAGTCACCTAGTGCAG | 9570 fluorescence intensity (a.u.)
CATCCCTCTTGGTCCCGCACTCTCTCGCGTGGAGCTTATCCGGAGTCACCTAGTGCAG | 8830 fluorescence intensity (a.u.)
AGAGGAGGAGAGTGGTGGTGGTGCGAGAGGGAGGGAGATGCGGAGTCACCTAGTGCAG | 9230 fluorescence intensity (a.u.)
TACAACTCTGTTTCTTACTTTCTGTTTGCGTCTTTGCCTTCGGAGTCACCTAGTGCAG | 8050 fluorescence intensity (a.u.)
CGTCCTGTTACAGAATCTACTTGTATCGCGTAATATCGAGCGGAGTCACCTAGTGCAG | 8980 fluorescence intensity (a.u.)
GGCGACCTGCGCGCGCTCCATTGCTGCTTCCGGCGCCGTGCGGAGTCACCTAGTGCAG | 9220 fluorescence intensity (a.u.)
CGCTGTCGATTCCGCGTTCATCGATTCGGCTTCCGCCGTCCGGAGTCACCTAGTGCAG | 9200 fluorescence intensity (a.u.)
CGTCCGATCCATCTCCTCTCCGTTTCTCTCAGCTACTCTCCGGAGTCACCTAGTGCAG | 8200 fluorescence intensity (a.u.)
CCTGTTCTTCGCTCGATCCTCCAATTTCCTCTCCCAAATCCGGAGTCACCTAGTGCAG | 11200 fluorescence intensity (a.u.)
GTCTTCTCTGTTCTTCTTCAGATGGCGAAAGCTCTCACCACGGAGTCACCTAGTGCAG | 10400 fluorescence intensity (a.u.)
GCCTGTTATTATACCTGCTCTTAGAGGACCTATGTGAACACGGAGTCACCTAGTGCAG | 8760 fluorescence intensity (a.u.)
TGTTTGGTGCTGTCGGTACATGGGTGGTGGTTTTTTCTTTCGGAGTCACCTAGTGCAG | 17500 fluorescence intensity (a.u.)
GGAATCTGGGAGGTGGGTGGGCCCCACGGCGGAGACTCCGCGGAGTCACCTAGTGCAG | 17200 fluorescence intensity (a.u.)
CTGTCATTGTCGCCCACTGCCGATCCACCCTTCGCCCAAGCGGAGTCACCTAGTGCAG | 16000 fluorescence intensity (a.u.)
GTCGGGCGGGAGCGGTGCAGGGTGGAGGAGGTGGGCGGGGCGGAGTCACCTAGTGCAG | 22900 fluorescence intensity (a.u.)
CACCTTTTCGTTTATACTTATACTTAAAATTTAAATTTTTCGGAGTCACCTAGTGCAG | 8370 fluorescence intensity (a.u.)
TCTCTTATGATTTGTTTGTCTGATACTCTGTCTGATCGGTCGGAGTCACCTAGTGCAG | 8640 fluorescence intensity (a.u.)
ATTTGCACCTGTTGAATGGGCATGTCTTGTGTGTGTTTCTCGGAGTCACCTAGTGCAG | 8400 fluorescence intensity (a.u.)
TCAATCTGTATAATTATTTTTTTTTCTATATTTAATACTGCGGAGTCACCTAGTGCAG | 8310 fluorescence intensity (a.u.)
GAGGTGGAAATGGGAGGGGAAGAAGAGGCTGACATGGTGACGGAGTCACCTAGTGCAG | 8440 fluorescence intensity (a.u.)
GAGCTTTTTTATTCTCTGGATGCCATATTTTTTACAGTTACGGAGTCACCTAGTGCAG | 8740 fluorescence intensity (a.u.)
CTTACTTTAAGGTGTGAGATTCATTCCTATCTCATTTTATCGGAGTCACCTAGTGCAG | 10500 fluorescence intensity (a.u.)
GTGTAGCTTCAACAGTTTGCCCTACCTCTTTACTCACATCCGGAGTCACCTAGTGCAG | 10800 fluorescence intensity (a.u.)
CACATGTTAATACATCTTCTCTATTTTGTTGATTTTTTCACGGAGTCACCTAGTGCAG | 9770 fluorescence intensity (a.u.)
